Assay results reported in paper PMC5404846.
These are yes or no findings as the source states them, for the method shown. For some of these results: Binding calls can cover weak binding; strength is not graded here.

Experiments:
Experiment in all cases: two-hybrid; GAL4 DNA-binding domain baits (pDEST32) and GAL4 activation domain preys (pDEST22) co-transformed into S. cerevisiae MaV203; serial dilutions plated on SC-Leu-Trp and on SC-Leu-Trp-His with 12.5 mM 3-aminotriazole; repeated with separate transformations
[1] = target: T1, MEDIATOR8 (Arabidopsis thaliana (Col-0 cDNA)) (UniProt Q4V3C1)
T1 sequence: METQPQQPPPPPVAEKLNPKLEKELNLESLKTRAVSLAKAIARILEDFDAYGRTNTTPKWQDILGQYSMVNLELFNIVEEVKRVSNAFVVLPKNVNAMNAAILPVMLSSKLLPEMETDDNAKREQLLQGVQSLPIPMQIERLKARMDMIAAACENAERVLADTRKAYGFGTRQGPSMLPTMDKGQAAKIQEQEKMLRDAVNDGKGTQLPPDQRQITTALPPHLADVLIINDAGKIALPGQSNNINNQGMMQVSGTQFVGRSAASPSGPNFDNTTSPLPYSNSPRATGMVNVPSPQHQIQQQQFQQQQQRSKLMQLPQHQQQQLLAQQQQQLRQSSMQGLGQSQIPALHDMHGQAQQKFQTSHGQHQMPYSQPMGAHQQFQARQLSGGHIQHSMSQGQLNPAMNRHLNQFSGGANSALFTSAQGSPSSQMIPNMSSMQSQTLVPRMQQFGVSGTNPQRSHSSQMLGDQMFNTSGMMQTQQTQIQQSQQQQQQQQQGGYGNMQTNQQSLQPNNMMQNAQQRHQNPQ

[2] = target: T2, MEDIATOR21 (Arabidopsis thaliana (Col-0 cDNA)) (UniProt C0LU16)
T2 sequence: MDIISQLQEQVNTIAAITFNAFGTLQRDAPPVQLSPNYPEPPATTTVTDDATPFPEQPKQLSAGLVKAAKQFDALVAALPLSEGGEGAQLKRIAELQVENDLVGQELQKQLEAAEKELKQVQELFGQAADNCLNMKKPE

[3] = target: T3, MEDIATOR18 (Arabidopsis thaliana (Col-0 cDNA)) (UniProt Q9SJZ6)
T3 sequence: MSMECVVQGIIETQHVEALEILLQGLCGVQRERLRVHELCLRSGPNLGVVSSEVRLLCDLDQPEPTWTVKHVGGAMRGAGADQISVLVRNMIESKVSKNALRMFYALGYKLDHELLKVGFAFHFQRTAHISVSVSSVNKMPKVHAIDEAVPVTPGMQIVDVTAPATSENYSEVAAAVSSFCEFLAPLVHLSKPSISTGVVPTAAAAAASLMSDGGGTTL

[4] = target: MEDIATOR20 (Arabidopsis thaliana (Col-0 cDNA))

Molecule | binding [1] | binding [2] | binding [3] | binding [4]
MEDIATOR20 (Arabidopsis thaliana (Col-0 cDNA)) | no binding | no binding | binds | –
MEDIATOR18 (protein, UniProt Q9SJZ6 1-219) MSMECVVQGIIETQHVEALEILLQGLCGVQRERLRVHELCLRSGPNLGVVSSEVRLLCDLDQPEPTWTVKHVGGAMRGAGADQISVLVRNMIESKVSKNALRMFYALGYKLDHELLKVGFAFHFQRTAHISVSVSSVNKMPKVHAIDEAVPVTPGMQIVDVTAPATSENYSEVAAAVSSFCEFLAPLVHLSKPSISTGVVPTAAAAAASLMSDGGGTTL | – | – | – | binds
